PubChem BioAssay AID1259405, NCATS – 2018
In all, the deposit lists about 50,000 reagents; this is an unselected part. About 4,000 of them (8%) were called active. 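Mouse siRNA library applied to hamster cells; one well for each siRNA.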 Unmarked entries are inactive.

Assay: 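Knock-downs that lift recombinant protein yield in hamster ovary cells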 (primary screen)
Cells: Chinese hamster CHO-K1 ovary cells with stable secreted eGFP expression
Knock-down reagent: single siRNA against mouse genes, 0.8 pmol siRNA per well (2 µl of 400 nM stock)
Duration: 3 days
Read-out: 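Per-well intracellular GFP measured by laser scanning cytometry, plus viability from ATP luminescence, each relative to plate median of non-targeting control wells, in %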
Reading the numbers: GFP, % of control: higher = more GFP per well, higher productivity; viability (ATP), % of control: higher = more viable cells (more ATP)
Call rule: 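a knock-down is called active if GFP reaches 120% or more of non-targeting control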

Against Tmbim4 (transmembrane BAX inhibitor motif containing 4) [SID363540759], the values are GFP, % of control 64.5; viability (ATP), % of control 72.9.
For Tmbim4 (transmembrane BAX inhibitor motif containing 4) [SID363543210], the entry reads GFP, % of control 57.6; viability (ATP), % of control 89.3.
Against Tmbim4 (transmembrane BAX inhibitor motif containing 4) [SID363552703] the deposit lists GFP, % of control 69.5; viability (ATP), % of control 55.5.
Timp3 (tissue inhibitor of metalloproteinase 3) [SID363572851] scored GFP, % of control 37.9; viability (ATP), % of control 81.3.
Timp3 (tissue inhibitor of metalloproteinase 3) [SID363577427] showed GFP, % of control 66.6; viability (ATP), % of control 76.5.
Timp3 (tissue inhibitor of metalloproteinase 3) [SID363580947] showed GFP, % of control 128 (active); viability (ATP), % of control 73.4.
For Aggf1 (angiogenic factor with G patch and FHA domains 1) [SID363543565], the values are GFP, % of control 79.4; viability (ATP), % of control 75.1.
With knock-down of Aggf1 (angiogenic factor with G patch and FHA domains 1) [SID363553058], the screen gave GFP, % of control 45.9; viability (ATP), % of control 94.6.
With knock-down of Aggf1 (angiogenic factor with G patch and FHA domains 1) [SID363558906], the record shows GFP, % of control 82.9; viability (ATP), % of control 99.4.
Fyn (Fyn proto-oncogene, Src family tyrosine kinase) [SID363570738] gave GFP, % of control 76.2; viability (ATP), % of control 58.8.
After knock-down of Clrn3 (clarin 3) [SID363546817], the screen gave GFP, % of control 52.7; viability (ATP), % of control 39.8.
With knock-down of Clrn3 (clarin 3) [SID363548573] the results were GFP, % of control 70.6; viability (ATP), % of control 88.3.
Clrn3 (clarin 3) [SID363560751] scored GFP, % of control 263 (active); viability (ATP), % of control 53.8.
Fam222a (family with sequence similarity 222, member A) [SID363562264] gave GFP, % of control 122 (active); viability (ATP), % of control 69.1.
Against Fam222a (family with sequence similarity 222, member A) [SID363567402] the deposit lists GFP, % of control 78.3; viability (ATP), % of control 78.6.
Fam222a (family with sequence similarity 222, member A) [SID363584759] showed GFP, % of control 69.8; viability (ATP), % of control 91.5.
Lce1e (late cornified envelope 1E) [SID363540577] scored GFP, % of control 75.2; viability (ATP), % of control 76.9.
For Lce1e (late cornified envelope 1E) [SID363543028] the deposit lists GFP, % of control 111; viability (ATP), % of control 74.9.
Against Lce1e (late cornified envelope 1E) [SID363552521], the values are GFP, % of control 81.2; viability (ATP), % of control 65.6.
Depletion of Pagr1a (PAXIP1 associated glutamate rich protein 1A) [SID363543744] resulted in: GFP, % of control 66.7; viability (ATP), % of control 67.7.
With knock-down of Pagr1a (PAXIP1 associated glutamate rich protein 1A) [SID363551480] the results were GFP, % of control 32.2; viability (ATP), % of control 19.3.
Pagr1a (PAXIP1 associated glutamate rich protein 1A) [SID363559085] showed GFP, % of control 75.4; viability (ATP), % of control 44.4.
For Ahsp (alpha hemoglobin stabilizing protein) [SID363541725] the deposit lists GFP, % of control 76.6; viability (ATP), % of control 46.1.
With knock-down of Ahsp (alpha hemoglobin stabilizing protein) [SID363553317] the results were GFP, % of control 173 (active); viability (ATP), % of control 95.7.
Depletion of Ahsp (alpha hemoglobin stabilizing protein) [SID363566641] came out at: GFP, % of control 64.9; viability (ATP), % of control 58.6.
Knock-down of Minpp1 (multiple inositol polyphosphate histidine phosphatase 1) [SID363575112] came out at: GFP, % of control 107; viability (ATP), % of control 86.7.
After knock-down of Minpp1 (multiple inositol polyphosphate histidine phosphatase 1) [SID363580744], the screen gave GFP, % of control 70.1; viability (ATP), % of control 57.6.
Minpp1 (multiple inositol polyphosphate histidine phosphatase 1) [SID363582856] gave GFP, % of control 65.7; viability (ATP), % of control 81.2.
Tspan7 (tetraspanin 7) [SID363555156] scored GFP, % of control 56.5; viability (ATP), % of control 42.7.
Tspan7 (tetraspanin 7) [SID363563817] scored GFP, % of control 54.5; viability (ATP), % of control 57.1.
Against Tspan7 (tetraspanin 7) [SID363587363], the values are GFP, % of control 75.3; viability (ATP), % of control 111.
After knock-down of Ddx25 (DEAD box helicase 25) [SID363545458] the results were GFP, % of control 103; viability (ATP), % of control 71.
Ddx25 (DEAD box helicase 25) [SID363548971] scored GFP, % of control 74.7; viability (ATP), % of control 48.
Ddx25 (DEAD box helicase 25) [SID363562777] showed GFP, % of control 79.8; viability (ATP), % of control 59.1.
With knock-down of Brinp3 [SID363546822], the record shows GFP, % of control 95.8; viability (ATP), % of control 62.6.
Brinp3 [SID363548578] gave GFP, % of control 92.6; viability (ATP), % of control 91.3.
Brinp3 [SID363560756] scored GFP, % of control 78.8; viability (ATP), % of control 82.9.
After knock-down of Gpam (glycerol-3-phosphate acyltransferase, mitochondrial) [SID363570428], the screen gave GFP, % of control 132 (active); viability (ATP), % of control 76.4.
Gpam (glycerol-3-phosphate acyltransferase, mitochondrial) [SID363579228] scored GFP, % of control 70.2; viability (ATP), % of control 55.8.
With knock-down of Gpam (glycerol-3-phosphate acyltransferase, mitochondrial) [SID363583100], the screen gave GFP, % of control 59.8; viability (ATP), % of control 86.1.
Depletion of Cxcr3 (C-X-C motif chemokine receptor 3) [SID363571301] came out at: GFP, % of control 111; viability (ATP), % of control 80.1.
After knock-down of Cxcr3 (C-X-C motif chemokine receptor 3) [SID363571653], the record shows GFP, % of control 78.1; viability (ATP), % of control 61.5.
For Cxcr3 (C-X-C motif chemokine receptor 3) [SID363572005] the deposit lists GFP, % of control 32; viability (ATP), % of control 44.3.
Depletion of Slc20a2 [SID363568727] resulted in: GFP, % of control 101; viability (ATP), % of control 82.2.
Against Slc20a2 [SID363576119], the entry reads GFP, % of control 79.8; viability (ATP), % of control 83.7.
Silencing of Slc20a2 [SID363578935] resulted in: GFP, % of control 83.9; viability (ATP), % of control 58.
After knock-down of Ttbk1 (tau tubulin kinase 1) [SID363550202], the record shows GFP, % of control 104; viability (ATP), % of control 93.4.
Ttbk1 (tau tubulin kinase 1) [SID363564711] scored GFP, % of control 82.2; viability (ATP), % of control 54.3.
Against Ttbk1 (tau tubulin kinase 1) [SID363588256], the entry reads GFP, % of control 97.2; viability (ATP), % of control 97.6.
Depletion of Themis (thymocyte selection associated) [SID363539534] came out at: GFP, % of control 85.9; viability (ATP), % of control 81.9.
Silencing of Themis (thymocyte selection associated) [SID363560835] came out at: GFP, % of control 93.2; viability (ATP), % of control 78.8.
Knock-down of Themis (thymocyte selection associated) [SID363564925] came out at: GFP, % of control 96.3; viability (ATP), % of control 89.9.
